Data as given in PubChem BioAssay AID1259263 (Sanger Institute, 2017)
Assay: 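Find siRNA and drug combinations lethal together in bowel cancer cells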 (follow-up of hits). Cell system: SW1463 human colorectal cancer cell line. Knock-down reagent: single siRNA against human genes. Conditions: anchor drugs BYL719 at 1 µM, cetuximab at 5 µg/ml or trametinib at 10 nM, or DMSO vehicle, added one day after siRNA transfection. Measurement: 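Viability relative to a non-targeting siRNA control, averaged over replicates, plus a synergy score contrasting measured with expected viability loss for knock-down and drug combined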. Reading the numbers: synergy score with trametinib and synergy score with BYL719 and synergy score with cetuximab: higher = stronger synthetic lethal effect with the drug. Rule for the call: 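Called active if the synergy score is above 0.10 for one or more of the three anchor drugs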. Calls: active = synergy with at least one drug; inactive = no synergy with any drug.
The whole screen tested 160 reagents; this is a part drawn at random. 101 of them (63%) were called active. 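Drug doses chosen to kill few cells alone; each row is one siRNA, and a gene counts as confirmed only if two or more siRNAs show synergy.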 Reagents against one gene are numbered here. Further read-outs or replicates are left out here. No sequences are given here. Not stated in the record: the amount of reagent, the time to read-out.

{"Gene": "MAP3K8", "siRNA no.": 1, "synergy score with trametinib": -0.0278, "synergy score with BYL719": 0.19, "synergy score with cetuximab": -0.00828}
{"Gene": "MAP3K8", "siRNA no.": 2, "synergy score with trametinib": 0.128, "synergy score with BYL719": 0.228, "synergy score with cetuximab": 0.135, "outcome": "active"}
{"Gene": "MAP3K8", "siRNA no.": 3, "synergy score with trametinib": 0.187, "synergy score with BYL719": 0.135, "synergy score with cetuximab": -0.0413, "outcome": "active"}
{"Gene": "MAP3K8", "siRNA no.": 4, "synergy score with trametinib": 0.26, "synergy score with BYL719": 0.0554, "synergy score with cetuximab": 0.186, "outcome": "active"}
{"Gene": "NR2F2", "siRNA no.": 1, "synergy score with trametinib": 0.228, "synergy score with BYL719": -0.294, "synergy score with cetuximab": -0.0219, "outcome": "active"}
{"Gene": "NR2F2", "siRNA no.": 2, "synergy score with trametinib": 0.156, "synergy score with BYL719": -0.235, "synergy score with cetuximab": -0.0701, "outcome": "active"}
{"Gene": "NR2F2", "siRNA no.": 3, "synergy score with trametinib": 0.344, "synergy score with BYL719": -0.0249, "synergy score with cetuximab": 0.139, "outcome": "active"}
{"Gene": "NR2F2", "siRNA no.": 4, "synergy score with trametinib": 0.0782, "synergy score with BYL719": 0.0693, "synergy score with cetuximab": -0.0563, "outcome": "inactive"}
{"Gene": "SF3B1", "siRNA no.": 1, "synergy score with trametinib": 0.0828, "synergy score with BYL719": 0.155, "synergy score with cetuximab": 0.0557}
{"Gene": "SF3B1", "siRNA no.": 2, "synergy score with trametinib": 0.135, "synergy score with BYL719": -0.238, "synergy score with cetuximab": -0.126, "outcome": "active"}
{"Gene": "SF3B1", "siRNA no.": 3, "synergy score with trametinib": 0.245, "synergy score with BYL719": 0.0757, "synergy score with cetuximab": -0.185, "outcome": "active"}
{"Gene": "SF3B1", "siRNA no.": 4, "synergy score with trametinib": 0.0513, "synergy score with BYL719": -0.0453, "synergy score with cetuximab": -0.161, "outcome": "inactive"}
